Data published in patent US20170189504A1, “NOVEL PEPTIDES AND COMBINATION OF PEPTIDES FOR USE IN IMMUNOTHERAPY AGAINST VARIOUS CANCERS” (immatics biotechnologies GmbH, priority 2015, published 2017).

Tested on: HLA-A*02
Test: Identification and relative LC-MS quantitation of HLA-A*02-presented tumor-associated peptides on tissue samples (presentation profiles, Tables 13A, 13B, 15, FIG. 1)
Parameters: species or system human; key to Presentation score NHL / Presentation score CLL / Presentation score BRCA / Presentation score AML / Presentation score GB / Presentation score NSCLC / Presentation score GBC_CCC / Presentation score UEC / Presentation score MEL / Presentation score OSCAR / Presentation score GC / Presentation score UBC / Presentation score OC / Presentation score RCC / Presentation score CRC / Presentation score PCA / Presentation score HCC / Presentation score PC / Presentation score SCLC: specifically presented on tumors (++++); very highly over-presented on tumors compared to a panel of normal tissues (+++); highly over-presented on tumors compared to a panel of normal tissues (++); over-presented on tumors compared to a panel of normal tissues (+)
Conditions: for Presentation score BRCA: breast cancer (N = 17) vs panel of normal tissues (N = 262); for Presentation score NHL: non-Hodgkin lymphoma (N = 18) vs panel of normal tissues (N = 262); for Presentation score NSCLC: non-small cell lung cancer (N = 90) vs panel of normal tissues (N = 262); for Presentation score OC: ovarian cancer (N = 20) vs panel of normal tissues (N = 262); for Peptide Presentation on cancer entities: HLA-A*02-binding tumor-associated peptides; for Presentation score CLL: chronic lymphocytic leukemia (N = 17) vs panel of normal tissues (N = 262); for Presentation score UBC: urinary bladder cancer (N = 16) vs panel of normal tissues (N = 262); for Presentation score OSCAR: esophageal cancer, including cancer of the gastric-esophageal junction (N = 17) vs panel of normal tissues (N = 262); for Presentation score GC: gastric cancer (N = 29) vs panel of normal tissues (N = 262); for Presentation score GB: glioblastoma (N = 41) vs panel of normal tissues (N = 262); for Presentation score AML: acute myeloid leukemia (N = 18) vs panel of normal tissues (N = 262); for Presentation score UEC: uterine cancer (N = 15) vs panel of normal tissues (N = 262); for Presentation score PCA: prostate cancer and benign prostate hyperplasia (N = 39) vs panel of normal tissues (N = 262)
[1] = Table 13A, cancer entities on which the peptide was found presented
[2] = Table 13B, presentation on additional cancer entities

95 (GLLGSLFFL; listed as Homo sapiens) [compound 95]
Presentation score BRCA (HLA-A*02 peptides): ++ | Presentation score GBC_CCC (HLA-A*02 peptides, gallbladder adenocarcinoma and cholangiocarcinoma (N = 6) vs panel of normal tissues (N = 262)): +++ | Presentation score NHL (HLA-A*02 peptides): ++ | Presentation score NSCLC (HLA-A*02 peptides): ++ | Presentation score OC (HLA-A*02 peptides): + | Presentation score SCLC (HLA-A*02 peptides, small cell lung cancer (N = 19) vs panel of normal tissues (N = 262)): + | Peptide Presentation on cancer entities [1]: NSCLC, OC, SCLC, UEC, BRCA, GBC_CCC, AML, NHL | Peptide Presentation on cancer entities [2]: GC, OSCAR, UBC, MEL, RCC, CRC, PC, HNSCC

96 (LLVSHLYLV; listed as Homo sapiens) [compound 96]
Presentation score CLL (HLA-A*02 peptides): +++ | Presentation score NHL (HLA-A*02 peptides): +++ | Presentation score NSCLC (HLA-A*02 peptides): + | Presentation score UBC (HLA-A*02 peptides): +++ | Peptide Presentation on cancer entities [1]: NSCLC, CLL, OC, UBC, NHL | Peptide Presentation on cancer entities [2]: UEC, CRC, HNSCC

97 (STLPKSLSL; listed as Homo sapiens) [compound 97]
Presentation score OSCAR (HLA-A*02 peptides): +++ | Presentation score GC (HLA-A*02 peptides): +++ | Presentation score GB (HLA-A*02 peptides): + | Presentation score OC (HLA-A*02 peptides): +++ | Peptide Presentation on cancer entities [1]: GB, GC, NSCLC, HCC, PCA, OSCAR, OC, BRCA, NHL

98 (RLFPDFFTRVAL; listed as Homo sapiens) [compound 98]
Presentation score NSCLC (HLA-A*02 peptides): + | Peptide Presentation on cancer entities [1]: NSCLC

101 (ALADFMLSL; listed as Homo sapiens) [compound 101]
Presentation score AML (HLA-A*02 peptides): ++++ | Peptide Presentation on cancer entities [1]: AML

102 (VLLDIQEVFQI; listed as Homo sapiens) [compound 102]
Presentation score AML (HLA-A*02 peptides): ++++ | Peptide Presentation on cancer entities [1]: AML

103 (YLVSEIFKA; listed as Homo sapiens) [compound 103]
Presentation score AML (HLA-A*02 peptides): ++++ | Peptide Presentation on cancer entities [1]: AML

104 (ALISWQPPRA; listed as Homo sapiens) [compound 104]
Presentation score GB (HLA-A*02 peptides): ++++

105 (ALLGTKILL; listed as Homo sapiens) [compound 105]
Presentation score NHL (HLA-A*02 peptides): ++++ | Peptide Presentation on cancer entities [1]: NHL

106 (FINDSIVYL; listed as Homo sapiens) [compound 106]
Presentation score AML (HLA-A*02 peptides): ++++ | Peptide Presentation on cancer entities [1]: AML | Peptide Presentation on cancer entities [2]: NSCLC, HCC, CRC, NHL

107 (LLVPTSGIYFV; listed as Homo sapiens) [compound 107]
Presentation score NHL (HLA-A*02 peptides): ++++ | Peptide Presentation on cancer entities [1]: NHL

108 (ILLKNLVTI; listed as Homo sapiens) [compound 108]
Presentation score BRCA (HLA-A*02 peptides): ++++ | Peptide Presentation on cancer entities [1]: BRCA

109 (SLDPSVTHL; listed as Homo sapiens) [compound 109]
Presentation score UEC (HLA-A*02 peptides): ++++ | Peptide Presentation on cancer entities [1]: UEC

110 (FLLGVSKEV; listed as Homo sapiens) [compound 110]
Presentation score MEL (HLA-A*02 peptides, melanoma (N = 7) vs panel of normal tissues (N = 262)): ++++ | Peptide Presentation on cancer entities [1]: MEL | Peptide Presentation on cancer entities [2]: NHL

112 (SLGKFTFDV; listed as Homo sapiens) [compound 112]
Presentation score NSCLC (HLA-A*02 peptides): ++++ | Presentation score UEC (HLA-A*02 peptides): ++++ | Peptide Presentation on cancer entities [1]: NSCLC, UEC

113 (FLERGLESA; listed as Homo sapiens) [compound 113]
Presentation score OSCAR (HLA-A*02 peptides): ++++ | Presentation score GC (HLA-A*02 peptides): ++++ | Presentation score UBC (HLA-A*02 peptides): ++++ | Peptide Presentation on cancer entities [1]: GC, OSCAR, UBC

114 (QLIQTLHAV; listed as Homo sapiens) [compound 114]
Presentation score OC (HLA-A*02 peptides): ++++ | Presentation score RCC (HLA-A*02 peptides, renal cell carcinoma (N = 20) vs panel of normal tissues (N = 262)): ++++ | Peptide Presentation on cancer entities [1]: OC, RCC

115 (SLDPDTLPAV; listed as Homo sapiens) [compound 115]
Presentation score NSCLC (HLA-A*02 peptides): ++++ | Presentation score OC (HLA-A*02 peptides): ++++ | Peptide Presentation on cancer entities [1]: NSCLC, OC

117 (KMPDVELFV; listed as Homo sapiens) [compound 117]
Presentation score NSCLC (HLA-A*02 peptides): + | Peptide Presentation on cancer entities [2]: NSCLC, SCLC, MEL

118 (QLWQFLVTL; listed as Homo sapiens) [compound 118]
Presentation score OC (HLA-A*02 peptides): ++++ | Peptide Presentation on cancer entities [2]: MEL

119 (FIIQGLRSVGA; listed as Homo sapiens) [compound 119]
Presentation score NSCLC (HLA-A*02 peptides): ++++ | Presentation score OC (HLA-A*02 peptides): ++++ | Peptide Presentation on cancer entities [1]: NSCLC, OC

122 (GVVDPVHGV; listed as Homo sapiens) [compound 122]
Presentation score OSCAR (HLA-A*02 peptides): ++++ | Presentation score GC (HLA-A*02 peptides): ++++ | Presentation score NSCLC (HLA-A*02 peptides): ++++ | Peptide Presentation on cancer entities [1]: GC, NSCLC, OSCAR

124 (KVMATIEKV; listed as Homo sapiens) [compound 124]
Presentation score NSCLC (HLA-A*02 peptides): ++++ | Presentation score OC (HLA-A*02 peptides): ++++ | Peptide Presentation on cancer entities [1]: NSCLC, OC

125 (SLADYEHFV; listed as Homo sapiens) [compound 125]
Presentation score GB (HLA-A*02 peptides): ++++ | Presentation score PCA (HLA-A*02 peptides): ++++ | Peptide Presentation on cancer entities [1]: GB, PCA

126 (QMFQYFITV; listed as Homo sapiens) [compound 126]
Presentation score CLL (HLA-A*02 peptides): ++++ | Presentation score NSCLC (HLA-A*02 peptides): ++++ | Peptide Presentation on cancer entities [1]: NSCLC, CLL | Peptide Presentation on cancer entities [2]: UEC

128 (TQSPATLSV; listed as Homo sapiens) [compound 128]
Presentation score OSCAR (HLA-A*02 peptides): ++++ | Presentation score GC (HLA-A*02 peptides): ++++ | Peptide Presentation on cancer entities [1]: GC, OSCAR

129 (RLQDILWFL; listed as Homo sapiens) [compound 129]
Presentation score AML (HLA-A*02 peptides): ++++ | Presentation score NSCLC (HLA-A*02 peptides): ++++ | Peptide Presentation on cancer entities [1]: NSCLC, AML

130 (SLLGGTFVGI; listed as Homo sapiens) [compound 130]
Presentation score UBC (HLA-A*02 peptides): ++++ | Peptide Presentation on cancer entities [1]: UBC | Peptide Presentation on cancer entities [2]: HCC

131 (VTSNSGILGV; listed as Homo sapiens) [compound 131]
Presentation score CLL (HLA-A*02 peptides): ++++ | Presentation score NHL (HLA-A*02 peptides): ++++ | Peptide Presentation on cancer entities [1]: CLL, NHL

132 (ILGEVLAQL; listed as Homo sapiens) [compound 132]
Presentation score CLL (HLA-A*02 peptides): ++++ | Presentation score NHL (HLA-A*02 peptides): ++++ | Peptide Presentation on cancer entities [1]: CLL, NHL

133 (ALLPRLHQL; listed as Homo sapiens) [compound 133]
Presentation score PCA (HLA-A*02 peptides): ++++ | Peptide Presentation on cancer entities [1]: PCA

134 (GLAVPTPSV; listed as Homo sapiens) [compound 134]
Presentation score NSCLC (HLA-A*02 peptides): ++++ | Presentation score OC (HLA-A*02 peptides): ++++ | Peptide Presentation on cancer entities [1]: NSCLC, OC | Peptide Presentation on cancer entities [2]: HNSCC

136 (FLFGGVLMTL; listed as Homo sapiens) [compound 136]
Presentation score NHL (HLA-A*02 peptides): ++++ | Presentation score OC (HLA-A*02 peptides): ++++ | Peptide Presentation on cancer entities [1]: OC, NHL
